Like-named read-outs stand apart in the source and are kept apart here. These are yes or no findings as the source states them, for the method shown. In cells and extracts the contact can be indirect. A yes stands for co-enrichment or nearness to the bait. Other partners may have been found.
B1: Kap123 (protein, UniProt P40069 1-1113)
chain: MDQQFLSQLEQTLHAITSGVGLKEATKTLQTQFYTQPTTLPALIHILQNGSDDSLKQLAGVEARKLVSKHWNAIDESTRASIKTSLLQTAFSEPKENVRHSNARVIASIGTEELDGNKWPDLVPNLIQTASGEDVQTRQTAIFILFSLLEDFTSSLSGHIDDFLALFSQTINDPSSLEIRSLSAQALNHVSALIEEQETINPVQAQKFAASIPSVVNVLDAVIKADDTMNAKLIFNCLNDFLLLDSQLTGNFIVDLIKLSLQIAVNSEIDEDVRVFALQFIISSLSYRKSKVSQSKLGPEITVAALKVACEEIDVDDELNNEDETGENEENTPSSSAIRLLAFASSELPPSQVASVIVEHIPAMLQSANVFERRAILLAISVAVTGSPDYILSQFDKIIPATINGLKDTEPIVKLAALKCIHQLTTDLQDEVAKFHEEYLPLIIDIIDSAKNIVIYNYATVALDGLLEFIAYDAIAKYLDPLMNKLFYMLESNESSKLRCAVVSAIGSAAFAAGSAFIPYFKTSVHYLEKFIQNCSQIEGMSEDDIELRANTFENISTMARAVRSDAFAEFAEPLVNSAYEAIKTDSARLRESGYAFIANLAKVYGENFAPFLKTILPEIFKTLELDEYQFNFDGDAEDLAAFADSANEEELQNKFTVNTGISYEKEVASAALSELALGTKEHFLPYVEQSLKVLNEQVDESYGLRETALNTIWNVVKSVLLASKVEPESYPKGIPASSYVNADVLAVIQAARETSMGNLSDEFETSMVITVMEDFANMIKQFGAIIIMDNGDSSMLEALCMQVLSVLKGTHTCQTIDIEEDVPRDEELDASETEATLQDVALEVLVSLSQALAGDFAKVFDNFRPVVFGLFQSKSKNKRSSAVGAASELALGMKEQNPFVHEMLEALVIRLTSDKSLEVRGNAAYGVGLLCEYASMDISAVYEPVLKALYELLSAADQKALAAEDDEATREIIDRAYANASGCVARMALKNSALVPLEQTVPALLAHLPLNTGFEEYNPIFELIMKLYQENSPVITNETPRIIEIFSAVFTKENDRIKLEKESTLGREENMERLKQFQTEEMKHKVIELLKYLNTTYNGIVAQNPVLAAVIA
B2: Mex67 (protein, UniProt Q99257 1-599)
chain: MSGFHNVGNINMMAQQQMQQNRIKISVRNWQNATMNDLINFISRNARVAVYDAHVEGPLVIGYVNSKAEAESLMKWNGVRFAGSNLKFELLDNNGASAGTSDTISFLRGVLLKRYDPQTKLLNLGALHSDPELIQKGVFSSISTQSKMFPAMMKLASTEKSLIVESVNLADNQLKDISAISTLAQTFPNLKNLCLANNQIFRFRSLEVWKNKFKDLRELLMTNNPITTDKLYRTEMLRLFPKLVVLDNVIVRDEQKLQTVYSLPMKIQQFFFENDALGQSSTDFATNFLNLWDNNREQLLNLYSPQSQFSVSVDSTIPPSTVTDSDQTPAFGYYMSSSRNISKVSSEKSIQQRLSIGQESINSIFKTLPKTKHHLQEQPNEYSMETISYPQINGFVITLHGFFEETGKPELESNKKTGKNNYQKNRRYNHGYNSTSNNKLSKKSFDRTWVIVPMNNSVIIASDLLTVRAYSTGAWKTASIAIAQPPQQQASVLPQVASMNPNITTPPQPQPSVVPGGMSIPGAPQGAMVMAPTLQLPPDVQSRLNPVQLELLNKLHLETKLNAEYTFMLAEQSNWNYEVAIKGFQSSMNGIPREAFVQF

By UniProt entry, the sequences of proteins in these tests, tags left out.
UniProt P38181: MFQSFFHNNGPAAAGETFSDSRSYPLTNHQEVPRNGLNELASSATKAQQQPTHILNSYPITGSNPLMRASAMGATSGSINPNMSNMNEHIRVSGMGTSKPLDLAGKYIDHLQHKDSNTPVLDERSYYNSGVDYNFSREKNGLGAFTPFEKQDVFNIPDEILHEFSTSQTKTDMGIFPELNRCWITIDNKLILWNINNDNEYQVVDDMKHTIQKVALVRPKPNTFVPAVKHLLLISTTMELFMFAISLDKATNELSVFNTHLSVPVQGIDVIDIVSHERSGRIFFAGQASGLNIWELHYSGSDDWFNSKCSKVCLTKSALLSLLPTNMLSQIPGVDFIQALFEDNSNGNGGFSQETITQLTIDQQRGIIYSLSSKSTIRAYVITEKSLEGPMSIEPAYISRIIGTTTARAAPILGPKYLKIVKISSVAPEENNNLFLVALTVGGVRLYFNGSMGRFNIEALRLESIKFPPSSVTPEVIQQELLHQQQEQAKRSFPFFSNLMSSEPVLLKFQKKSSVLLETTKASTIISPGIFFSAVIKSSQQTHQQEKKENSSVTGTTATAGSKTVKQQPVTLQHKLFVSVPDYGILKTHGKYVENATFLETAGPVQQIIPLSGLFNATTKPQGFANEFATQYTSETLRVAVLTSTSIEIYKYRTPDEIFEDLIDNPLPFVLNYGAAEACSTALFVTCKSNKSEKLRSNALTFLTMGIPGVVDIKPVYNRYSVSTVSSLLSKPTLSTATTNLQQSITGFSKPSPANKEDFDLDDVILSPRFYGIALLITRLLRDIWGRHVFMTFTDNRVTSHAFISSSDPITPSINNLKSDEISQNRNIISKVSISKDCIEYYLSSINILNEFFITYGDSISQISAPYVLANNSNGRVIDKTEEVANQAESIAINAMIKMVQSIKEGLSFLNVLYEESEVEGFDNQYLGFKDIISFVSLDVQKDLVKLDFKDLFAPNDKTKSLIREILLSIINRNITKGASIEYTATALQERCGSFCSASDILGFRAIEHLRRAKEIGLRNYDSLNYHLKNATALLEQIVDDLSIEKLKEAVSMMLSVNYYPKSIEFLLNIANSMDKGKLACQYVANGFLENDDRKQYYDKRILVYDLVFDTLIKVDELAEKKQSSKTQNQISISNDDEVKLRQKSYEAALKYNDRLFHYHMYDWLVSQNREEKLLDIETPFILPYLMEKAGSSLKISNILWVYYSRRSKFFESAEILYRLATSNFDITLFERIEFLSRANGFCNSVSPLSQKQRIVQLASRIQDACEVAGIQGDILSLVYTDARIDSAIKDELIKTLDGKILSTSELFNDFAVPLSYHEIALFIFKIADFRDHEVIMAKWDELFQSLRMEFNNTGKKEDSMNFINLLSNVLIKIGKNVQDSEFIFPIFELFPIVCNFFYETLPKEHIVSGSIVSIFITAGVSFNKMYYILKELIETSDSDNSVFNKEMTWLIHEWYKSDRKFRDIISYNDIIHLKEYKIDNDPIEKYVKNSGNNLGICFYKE
UniProt Q02455: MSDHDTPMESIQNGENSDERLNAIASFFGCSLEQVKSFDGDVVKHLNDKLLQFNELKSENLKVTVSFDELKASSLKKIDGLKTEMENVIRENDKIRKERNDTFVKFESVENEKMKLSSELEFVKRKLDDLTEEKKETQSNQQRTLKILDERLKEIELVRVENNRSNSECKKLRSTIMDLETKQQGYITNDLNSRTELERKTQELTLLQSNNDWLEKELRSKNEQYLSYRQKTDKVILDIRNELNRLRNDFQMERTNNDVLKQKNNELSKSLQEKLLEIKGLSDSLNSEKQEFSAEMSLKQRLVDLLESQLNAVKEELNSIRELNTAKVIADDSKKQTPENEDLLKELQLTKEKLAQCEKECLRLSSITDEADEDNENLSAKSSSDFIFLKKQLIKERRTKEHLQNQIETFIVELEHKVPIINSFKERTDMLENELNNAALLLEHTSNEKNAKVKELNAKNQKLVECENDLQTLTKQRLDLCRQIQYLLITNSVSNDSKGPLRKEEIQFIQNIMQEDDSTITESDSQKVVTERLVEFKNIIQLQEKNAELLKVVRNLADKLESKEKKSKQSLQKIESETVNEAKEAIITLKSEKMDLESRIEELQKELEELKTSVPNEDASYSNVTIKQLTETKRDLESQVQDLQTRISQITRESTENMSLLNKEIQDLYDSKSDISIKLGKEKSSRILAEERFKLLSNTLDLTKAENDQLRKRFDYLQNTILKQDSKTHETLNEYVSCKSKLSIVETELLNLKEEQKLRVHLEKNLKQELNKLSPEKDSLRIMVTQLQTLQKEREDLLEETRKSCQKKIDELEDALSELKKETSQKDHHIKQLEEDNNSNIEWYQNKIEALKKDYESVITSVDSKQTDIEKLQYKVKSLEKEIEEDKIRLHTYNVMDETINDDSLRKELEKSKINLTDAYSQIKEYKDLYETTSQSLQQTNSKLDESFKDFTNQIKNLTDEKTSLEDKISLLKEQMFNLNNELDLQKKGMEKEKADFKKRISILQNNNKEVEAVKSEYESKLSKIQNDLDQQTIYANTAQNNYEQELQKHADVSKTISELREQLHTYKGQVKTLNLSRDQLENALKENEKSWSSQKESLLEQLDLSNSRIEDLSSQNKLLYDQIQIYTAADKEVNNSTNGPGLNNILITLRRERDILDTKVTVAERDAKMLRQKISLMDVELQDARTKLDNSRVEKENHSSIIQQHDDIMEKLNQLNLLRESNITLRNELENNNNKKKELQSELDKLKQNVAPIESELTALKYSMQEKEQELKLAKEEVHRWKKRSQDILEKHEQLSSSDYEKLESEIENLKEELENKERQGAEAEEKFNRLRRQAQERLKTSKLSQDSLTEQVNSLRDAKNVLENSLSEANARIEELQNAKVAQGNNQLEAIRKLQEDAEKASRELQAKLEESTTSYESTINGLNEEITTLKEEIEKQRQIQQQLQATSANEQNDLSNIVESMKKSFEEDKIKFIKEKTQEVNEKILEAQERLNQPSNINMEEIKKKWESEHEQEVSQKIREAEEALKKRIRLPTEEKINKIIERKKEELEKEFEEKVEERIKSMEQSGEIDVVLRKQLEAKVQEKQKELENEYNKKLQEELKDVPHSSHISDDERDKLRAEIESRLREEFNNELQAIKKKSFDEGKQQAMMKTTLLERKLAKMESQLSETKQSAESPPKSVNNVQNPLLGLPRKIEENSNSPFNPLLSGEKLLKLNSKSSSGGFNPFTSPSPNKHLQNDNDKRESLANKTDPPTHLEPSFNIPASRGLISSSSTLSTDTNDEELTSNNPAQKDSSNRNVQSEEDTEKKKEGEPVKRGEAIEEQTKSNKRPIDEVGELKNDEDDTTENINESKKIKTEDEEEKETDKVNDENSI
UniProt P40477: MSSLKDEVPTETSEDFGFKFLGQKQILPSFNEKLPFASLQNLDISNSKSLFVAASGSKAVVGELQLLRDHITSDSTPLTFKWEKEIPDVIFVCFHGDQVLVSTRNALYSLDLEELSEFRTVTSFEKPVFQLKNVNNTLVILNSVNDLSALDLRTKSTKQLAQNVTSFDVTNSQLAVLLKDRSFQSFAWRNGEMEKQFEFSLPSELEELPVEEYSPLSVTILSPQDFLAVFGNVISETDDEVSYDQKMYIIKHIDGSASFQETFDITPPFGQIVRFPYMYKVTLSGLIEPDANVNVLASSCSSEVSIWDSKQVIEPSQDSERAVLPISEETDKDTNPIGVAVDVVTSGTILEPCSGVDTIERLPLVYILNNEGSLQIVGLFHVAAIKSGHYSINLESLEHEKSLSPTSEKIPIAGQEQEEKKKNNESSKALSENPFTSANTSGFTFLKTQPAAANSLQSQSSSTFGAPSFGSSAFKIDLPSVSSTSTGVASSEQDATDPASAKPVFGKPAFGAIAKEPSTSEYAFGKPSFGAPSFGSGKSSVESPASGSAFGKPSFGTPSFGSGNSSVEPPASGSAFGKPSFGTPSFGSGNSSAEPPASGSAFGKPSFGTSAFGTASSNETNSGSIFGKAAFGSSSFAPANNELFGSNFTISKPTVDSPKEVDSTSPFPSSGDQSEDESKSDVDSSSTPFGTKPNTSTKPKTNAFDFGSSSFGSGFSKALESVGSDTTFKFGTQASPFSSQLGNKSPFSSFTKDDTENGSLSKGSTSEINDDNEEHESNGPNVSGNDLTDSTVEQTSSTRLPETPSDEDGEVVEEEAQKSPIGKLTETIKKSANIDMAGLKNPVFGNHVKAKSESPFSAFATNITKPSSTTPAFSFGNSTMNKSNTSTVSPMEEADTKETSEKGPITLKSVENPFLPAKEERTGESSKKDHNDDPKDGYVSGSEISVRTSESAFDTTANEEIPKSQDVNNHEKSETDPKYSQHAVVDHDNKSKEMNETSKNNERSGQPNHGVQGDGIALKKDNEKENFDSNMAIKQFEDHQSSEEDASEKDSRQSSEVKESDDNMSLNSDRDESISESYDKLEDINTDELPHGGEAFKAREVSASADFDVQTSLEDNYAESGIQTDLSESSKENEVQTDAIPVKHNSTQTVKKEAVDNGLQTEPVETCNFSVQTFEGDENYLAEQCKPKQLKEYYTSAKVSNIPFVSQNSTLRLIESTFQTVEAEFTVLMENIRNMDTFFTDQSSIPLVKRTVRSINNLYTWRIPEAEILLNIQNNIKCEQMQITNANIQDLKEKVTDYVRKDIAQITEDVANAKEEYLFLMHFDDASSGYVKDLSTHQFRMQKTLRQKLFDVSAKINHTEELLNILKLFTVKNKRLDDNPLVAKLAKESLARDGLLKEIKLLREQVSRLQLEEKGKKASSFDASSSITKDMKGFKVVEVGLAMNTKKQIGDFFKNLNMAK
UniProt P39685: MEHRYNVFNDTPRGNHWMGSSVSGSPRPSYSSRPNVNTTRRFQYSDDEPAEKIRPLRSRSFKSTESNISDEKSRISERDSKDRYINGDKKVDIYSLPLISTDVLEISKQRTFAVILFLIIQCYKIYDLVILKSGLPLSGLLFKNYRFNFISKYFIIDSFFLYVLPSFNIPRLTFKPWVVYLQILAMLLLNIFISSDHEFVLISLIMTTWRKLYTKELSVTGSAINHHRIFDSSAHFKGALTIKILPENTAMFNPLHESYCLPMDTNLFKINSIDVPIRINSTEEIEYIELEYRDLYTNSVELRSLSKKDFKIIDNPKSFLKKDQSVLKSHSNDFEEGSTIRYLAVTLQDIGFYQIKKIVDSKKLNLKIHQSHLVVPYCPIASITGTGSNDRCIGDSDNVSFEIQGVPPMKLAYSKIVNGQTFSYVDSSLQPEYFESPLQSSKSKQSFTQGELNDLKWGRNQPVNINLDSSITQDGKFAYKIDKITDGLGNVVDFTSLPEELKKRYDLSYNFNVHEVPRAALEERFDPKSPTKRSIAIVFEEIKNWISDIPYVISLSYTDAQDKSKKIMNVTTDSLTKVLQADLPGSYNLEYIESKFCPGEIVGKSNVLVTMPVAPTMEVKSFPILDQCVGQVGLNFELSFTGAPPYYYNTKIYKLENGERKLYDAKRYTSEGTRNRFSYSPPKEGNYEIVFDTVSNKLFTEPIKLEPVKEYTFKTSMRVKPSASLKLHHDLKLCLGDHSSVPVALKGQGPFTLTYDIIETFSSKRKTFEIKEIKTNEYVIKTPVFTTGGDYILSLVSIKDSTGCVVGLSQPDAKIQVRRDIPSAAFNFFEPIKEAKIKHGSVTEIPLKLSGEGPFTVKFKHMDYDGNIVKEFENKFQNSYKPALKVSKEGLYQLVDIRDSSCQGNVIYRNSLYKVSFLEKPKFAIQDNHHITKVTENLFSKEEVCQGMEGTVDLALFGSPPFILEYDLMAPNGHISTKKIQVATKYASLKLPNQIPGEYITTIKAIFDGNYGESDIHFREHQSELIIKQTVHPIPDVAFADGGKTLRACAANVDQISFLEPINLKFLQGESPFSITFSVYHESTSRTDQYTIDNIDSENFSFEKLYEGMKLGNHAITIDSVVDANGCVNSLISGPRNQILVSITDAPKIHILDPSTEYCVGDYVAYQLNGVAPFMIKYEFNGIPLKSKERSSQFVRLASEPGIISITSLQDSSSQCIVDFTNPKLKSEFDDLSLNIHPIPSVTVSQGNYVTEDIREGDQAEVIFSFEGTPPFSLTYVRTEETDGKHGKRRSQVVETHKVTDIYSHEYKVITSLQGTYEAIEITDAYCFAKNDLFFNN

Experiments:
Experiment in all cases: affinity purification with mass spectrometry
[1] = target: Nup170-ZZ (S. cerevisiae) (UniProt P38181)
Brl1-ZZ (S. cerevisiae) [2] = target: T1, Brl1-ZZ (S. cerevisiae) (UniProt P38770)
T1 sequence: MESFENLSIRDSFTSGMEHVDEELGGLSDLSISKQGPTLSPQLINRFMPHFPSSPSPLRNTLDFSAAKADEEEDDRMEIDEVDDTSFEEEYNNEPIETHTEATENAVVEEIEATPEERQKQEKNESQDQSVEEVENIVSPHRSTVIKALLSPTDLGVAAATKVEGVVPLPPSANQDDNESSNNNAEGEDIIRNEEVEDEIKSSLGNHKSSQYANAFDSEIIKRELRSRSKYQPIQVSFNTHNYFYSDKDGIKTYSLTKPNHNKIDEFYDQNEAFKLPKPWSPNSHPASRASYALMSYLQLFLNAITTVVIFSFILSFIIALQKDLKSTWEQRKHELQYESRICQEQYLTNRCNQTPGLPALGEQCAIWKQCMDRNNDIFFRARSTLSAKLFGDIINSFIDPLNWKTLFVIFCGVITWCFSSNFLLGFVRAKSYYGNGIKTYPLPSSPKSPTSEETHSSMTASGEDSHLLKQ

Brl1-ZZ (S. cerevisiae) [3] = target: T1, Brl1-ZZ (S. cerevisiae); remark: listed apart in the source

Molecule | binding [1] | binding (Brl1-ZZ (S. cerevisiae) [2]) | binding (Brl1-ZZ (S. cerevisiae) [3])
Mlp1 (from UniProt Q02455 1-1875) | binds |  | 
Mlp2 (from UniProt P40457 1-1679) | binds |  | 
Nup159 (from UniProt P40477 1-1460) |  | binds | 
Pom152 (from UniProt P39685 1-1337) |  | binds | 
B1 |  |  | binds
B2 |  |  | binds

Reference: publication doi:10.1101/2022.03.04.483005
